Source: PubChem BioAssay AID1347423 (Functional Genomics Laboratory (NCATS/FGL), 2020)
Hit rate of the full screen: of about 52,000 sequences, about 210 (0.4%) were called active.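 How the source made its calls: active means gene whose silencing raises cell survival under the drug, median off-target-corrected z-score across its silencing RNAs 2 or more; inactive means the rest.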 The list shows a part of the results.

Test: Resistance to Poly (ADP-Ribose) Polymerase inhibitor: Gene Identification via Genome-wide siRNA Screen
Settings: mouse BRCA2 R2336H ES cells, olaparib, CellTiter-Glo viability; stronger effect = higher value
How it was run: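 Genome-wide siRNA screen (3 siRNAs/gene, 20 nM) in mouse ES cells carrying hypomorphic BRCA2 R2336H; olaparib 500 nM added 48 h post-transfection, CellTiter-Glo viability 72 h later. Normalized to plate-median negative control; MAD z-scores, gene median, seed-adjusted.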

| Sequence | z-score |
| --- | --- |
| GCAGAGGAGUUUUCAAUUUTT against Il17rb | inactive: 0.708 |
| GGACAAAGAGAAUGAUGGATT against Cdc25b | inactive: -0.502 |
| GCCCUUUCGCCUAUGGUUUTT against 4930427A07Rik | inactive: 0.752 |
| GGGAGAUAUCUUCUCAGUATT against 5830406J20Rik | inactive: -0.17 |
| GGACAAGAAAUACACCAUGTT against Gstm2 | inactive: 1.85 |
| GGCUCAUUUGCUGAGUGUGTT against Fscn2 | inactive: -0.0301 |
| GGCCUUUGUAUUUCCCAAGTT against Crp | inactive: 1.27 |
| GCCUAUGAAGGAACCACAUTT against Cdh2 | inactive: 0.551 |
| GGCUGAAACUAAGAACUCATT against Rdbp | inactive: 0.282 |
| GGAAGAAGAAAAGGAUUACTT against 4933407N01Rik | inactive: 2.01 |
| GGUCAUCACCUAUGCAGGGTT against Olfr1353 | inactive: -0.819 |
| GGAUGACAAGAAUACAAUGTT against Myo5a | inactive: 0.102 |
| CCUUGUUGUGACAAGCUUUTT against Rchy1 | inactive: 0.0482 |
| UGGCGUGUCUCCUAUCCAUTT against Abl2 | inactive: 0.699 |
| GGAAAGAAAGACAAAGAAGTT against Cst6 | inactive: 0.604 |
| GCUUUUAGGUGUGCUGUCCTT against Psg28 | inactive: 1.67 |
| GGUGGCUCUGAAGAAAGUGTT against Cdk9 | inactive: -0.808 |
| GGUCAUCUGCUAAUAGAAUTT against Bcap29 | inactive: -0.293 |
| GAGUGGAACCAGAUUCCUCTT against Mcpr1 | inactive: 1.48 |
| GCAAGCAACCCAUAGUCUATT against Hoxc4 | inactive: -0.705 |
| GGAUGCUCAUGGACCUUUGTT against Olfr1122 | inactive: -1.34 |
| GCCUUCUGCCGUUAUUAAUTT against 9.83E+11 | inactive: 0.329 |
| GGAACCUAGUUUGUGGAUUTT against N28178 | inactive: -0.344 |

| Sequence | z-score |
| --- | --- |
| GGCUAAGAAUGAGACUGGUTT against Abcg4 | inactive: -0.339 |
| GGCAGACAGAGGGUAAAAATT against Slc24a1 | inactive: -1.47 |
| GGCUACAAGUUGGUAAUCUTT against Pnkp | inactive: -2.03 |
| GGUCAAGAUCCGAAGCUACTT against Cntn2 | inactive: -1.28 |
| GGAACCUUCUCCAAAGCAATT against Rpgrip1 | inactive: -0.107 |
| GGCUGAGAACUUUUUAUUUTT against Dll3 | inactive: 1.52 |
| GGCAGGUCUUACGCAAAACTT against Csf1r | inactive: 0.472 |
| GCCUUGGACAAAAACACUATT against Ryk | inactive: -0.581 |
| GGUUAUUGAAGAUGAUAGATT against Sec24c | inactive: -0.171 |
| GGAUUCAGGGAACAGCAAUTT against Ntrk3 | inactive: 1.56 |
| GGCCAAGAAGGUACGUUUCTT against Dcx | inactive: 0.273 |
| GGGUUCAGGACAAGUUAAATT against Gpkow | inactive: -0.356 |
| GGCGGGAAAUGUCUUUAUCTT against Rpl22 | inactive: 0.333 |
| GCUCUGUAAACCAUGUAAGTT against Slc14a1 | inactive: 0.717 |
| GGCAUCAACUUCGUGCUAATT against Olfr541 | inactive: 1.01 |
| GCCAGCAUAGCAGAAAAUATT against Usp25 | inactive: -1.34 |
| GGAGACCUUCAAGUACUUUTT against 6720485C15Rik | inactive: -2.58 |
| GGCACGCUUAGCCAAAUGUTT against Herc2 | inactive: 1.23 |
| GGAGAUUCAGAAAAAGCUGTT against Stmn2 | inactive: 0.676 |
| GGCAAAAUCAUGUGGUUGATT against Dlat | inactive: -0.444 |
| GAUCACUGGCAAGCACGAATT against Hspb1 | inactive: 1.67 |
| CCCACAGGGAUUUAUUUAUTT against Slc37a1 | active: 1.36 |
| GGUGAUAGUCGUUUUCUAGTT against Wee1 | inactive: -1.76 |

| Sequence | z-score |
| --- | --- |
| GGAUGGAGAUGAAAUUAUCTT against Atp8a2 | inactive: -0.341 |
| CGGAGUAUUUCUAUCCACGTT against Gas6 | inactive: 0.873 |
| GGAAUCCUUUGGUUAUUCATT against Hs6st1 | inactive: 0.846 |
| GCACUGUUUGUGCAAACAATT against C130071C03Rik | inactive: 1.13 |
| GGAAGAACAGACUUGCCUGTT against Sh3bp1 | inactive: -0.88 |
| GGAAGAAAUUCAAAAACUGTT against Golga5 | inactive: -0.0228 |
| GGUGAUUGUGCACCUGUUGTT against Tex14 | inactive: -1.21 |
| GGAUUAUUUUAAGUGGAGATT against Dna2l | inactive: 0.0165 |
| GGUGGAAGAACUCUGUCAGTT against Rnf40 | inactive: -0.443 |
| CGAGGCUAACAAACUCAUATT against Guca2a | inactive: -0.522 |
| CCGAUUUGAAAAGCUAAUGTT against Fmnl1 | inactive: 0.124 |
| GGAAAACCACUACAAGUUCTT against 1010001D01Rik | inactive: 0.639 |
| CCAUCCUAGCUGUGGUAAGTT against Olfr554 | inactive: 1.54 |
| CGUUGAUUUCCAAAGCUGUTT against Kcnc2 | inactive: 0.168 |
| CGAAAACGAGAUCACCAAATT against E2f7 | inactive: 1.02 |
| GGCAGCUUACUAAAGAUCUTT against 1700083M11Rik | inactive: -0.901 |
| GGAUGAUGUGACAGAGACCTT against Trpv3 | inactive: 1.78 |
| GGGCACAAGAUCUCAAUUUTT against B4galt7 | inactive: -0.557 |
| GCCAUUCUCACUCCUAGUUTT against Foxj2 | inactive: -1.37 |
| CGUGUAACACACGAUUAGATT against Ttid | inactive: 0.186 |
| GCUCAAAACAAUCCACGCCTT against 1700006J14Rik | inactive: 2.75 |

Looked up above.
Value for GGAAGAAAUUCAAAAACUGTT against Golga5 under z-score: inactive: -0.0228
Value for CGUUGAUUUCCAAAGCUGUTT against Kcnc2 under z-score: inactive: 0.168
